Measurements taken from patent US11524003B2, “Alpha-amino esters of hydroxypropylthiazolidine carboxamide derivative and salt form, crystal polymorph thereof” (ObsEva S.A., priority 2016, dated 2022).
Some results were stated once for a whole list of compounds, not compound by compound.

Tested on: spontaneous uterine contractions
Assay: Spontaneous uterine activity in late-term anaesthetized pregnant rat
Assay type: in vivo
Settings: i.v. or oral; maximal effect at 30 mg/kg i.v. and 60 mg/kg oral; compound I as mesylate salt
Excerpt: The tocolytic effects of compound I and compound II were investigated in a model of spontaneous uterine activity in late-term (19-21 days of gestation) anaesthetized pregnant rat (Kawarabayashi et al. Am. J. Obstet. Gynecol. 175:1348-1355 (1996) and Shinkai et al. J. Pharm. Pharmacol. 52:1417-1423 (2000)). Briefly, late-term pregnant female rats were anaesthetized with urethane. One pregnant uterine horn was exposed and a polyethylene catheter bearing on the tip a latex balloon filled with saline was inserted into the lumen. The catheter was connected to an amplifying/recording system via a pressure-transducer. […] The percent variation of the AUC values relative to the spontaneous uterine response observed after each compound administration was calculated in comparison to the value recorded before the first dose-administration (basal value). The effect of compound I or compound II was evaluated by comparing pre- and post-treatment luminal uterine pressure values. For the oral administration the same computation procedure was applied at different time points after treatment. Statistical differences between treatment groups at each time-point were determined by using one-way ANOVA followed by Tukey test. Both compounds intravenously or orally administered were able to markedly reduce spontaneous uterine

SMILES	Reduction of spontaneous uterine contractions
O=C(N[C@@H](CCO)c1ccc(F)cc1)[C@@H]1SCCN1S(=O)(=O)c1ccc(-c2ccccc2)cc1 [Compound II, 3-([1,1′-biphenyl]-4-ylsulfonyl)-N-[1-(4-fluorophenyl)-3-hydroxypropyl]-1,3-thiazolidine-2-carboxamide]	40-50%
CC(C)[C@H](N)C(=O)OCC[C@H](NC(=O)[C@@H]1SCCN1S(=O)(=O)c1ccc(-c2ccccc2)cc1)c1ccc(F)cc1 [Compound I, (3S)-3-({[(2S)-3-(biphenyl-4-ylsulfonyl)-1,3-thiazolidin-2-yl]carbonyl}-amino)-3-(4-fluorophenyl)propyl L-valinate]	40-50%
